Binding data for two molecules are collected here from publication PMC8218485.

Results are given in words; binding and its absence hold for the method and conditions named. Binding calls can cover weak binding; strength is not graded here.

This test has as its target LbHLH (Limonium bicolor). Put plainly: two-hybrid; Y2H Gold yeast; bait in pGBKT7 (BD), prey in pGADT7 (AD); growth and blue colour of colonies on SD/-Leu/-Trp/X-a-gal/Aba (200 ng/ml) and SD/-Ade/-His/-Leu/-Trp/X-a-gal/Aba (200 ng/ml) after 2 days of culture.

B1: AtGL3 (GLABRA3) (protein, UniProt Q9FN69 1-637)
chain: MATGQNRTTVPENLKKHLAVSVRNIQWSYGIFWSVSASQSGVLEWGDGYYNGDIKTRKTIQASEIKADQLGLRRSEQLSELYESLSVAESSSSGVAAGSQVTRRASAAALSPEDLADTEWYYLVCMSFVFNIGEGMPGRTFANGEPIWLCNAHTADSKVFSRSLLAKSAAVKTVVCFPFLGGVVEIGTTEHITEDMNVIQCVKTSFLEAPDPYATILPARSDYHIDNVLDPQQILGDEIYAPMFSTEPFPTASPSRTTNGFDQEHEQVADDHDSFMTERITGGASQVQSWQLMDDELSNCVHQSLNSSDCVSQTFVEGAAGRVAYGARKSRVQRLGQIQEQQRNVKTLSFDPRNDDVHYQSVISTIFKTNHQLILGPQFRNCDKQSSFTRWKKSSSSSSGTATVTAPSQGMLKKIIFDVPRVHQKEKLMLDSPEARDETGNHAVLEKKRREKLNERFMTLRKIIPSINKIDKVSILDDTIEYLQELERRVQELESCRESTDTETRGTMTMKRKKPCDAGERTSANCANNETGNGKKVSVNNVGEAEPADTGFTGLTDNLRIGSFGNEVVIELRCAWREGVLLEIMDVISDLHLDSHSVQSSTGDGLLCLTVNCKHKGSKIATPGMIKEALQRVAWIC
For B1, the binding result is “no binding”.

B2: AtGL1 (GLABRA1) (protein, UniProt P27900 1-228)
chain: MRIRRRDEKENQEYKKGLWTVEEDNILMDYVLNHGTGQWNRIVRKTGLKRCGKSCRLRWMNYLSPNVNKGNFTEQEEDLIIRLHKLLGNRWSLIAKRVPGRTDNQVKNYWNTHLSKKLVGDYSSAVKTTGEDDDSPPSLFITAATPSSCHHQQENIYENIAKSFNGVVSASYEDKPKQELAQKDVLMATTNDPSHYYGNNALWVHDDDFELSSLVMMNFASGDVEYCL
As for B2, the binding entry is recorded as “binds”.
